These results are taken from patent US4208327A, “5-Aryl-1-(2-oxazolin-2-yl)-1H-1,4-benzodiazepines and related compounds” (G. D. Searle & Co., priority 1979, dated 1980).

Data set [1] in a line: Rotarod test (muscle relaxant). It is filed as in vivo, mice. The conditions noted are these: intragastric; for ED50: Mus musculus, po, read-out: Rotarod ED50 (95% confidence limits). As to the method:
Using this procedure [after Dunham, N.W. and T.S. Miya, J. Amer. Pharm. […] The compounds were administered intragastrically to mice at varying time periods before being placed on the horizontal rotating (4.4 rpm) rod. Different groups of mice were assigned to each time period so that a subject was tested only once. A testing trial consisted of two opportunities to stay on the rod for one minute. ED50 's were calculated for each time period.

Data set [2] is described as follows: Potentiation of a sub-hypnotic dose of pentobarbital sodium (loss of righting reflex). To be noted: intragastric, two hour period. The text has this:
In this procedure an ED50 for loss of righting reflex was established.

Data set [3] can be described thus: Blockade of pentylenetetrazole induced clonic convulsions, intragastric. The procedure:
Exp. Ther., 108, 168 (1953)]. […] Both test compounds were administered intragastrically at specific time periods prior to the pentylenetetrazole challenge, and the ED50 for blockade of clonic convulsions was determined for each time period. Duration of activity is inferred from increases in the ED50 with time.

Where two headings read alike, the source gives them in different places.

Take `CN1C(=O)CN=C(c2ccccc2)c2cc(Cl)ccc21` [Diazepam, diazepam, reference compound]: the ED50 – broadly, the dose at which the effect has come halfway, by size or by number of responders – in data set [1] (0.08 h, .08 hours) worked out at 6 mg/kg; in data set [1] (0.25 h, .25 hours), 3.2 mg/kg; in data set [1] (1.0 hours) it was 5.7 mg/kg; in data set [1] (2.0 hours) it was 7.7 mg/kg. In addition, the “increase of rotarod ED50 from 15 minutes to 2 hours” value in data set [1] is recorded as “about 2.5 times”. Also, in data set [1], the “time to peak effect (rotarod)” value came to 15 min. Further, the “stability of ED50 for potentiating pentobarbital sodium” value in data set [2] is on record as “remained fairly stable”. In addition, the “stability of ED50 over 2 hours” value in data set [3] is reported as “remained stable for 2 hours”.
